Test results from patent US9150581B2, “Nicotinic receptor compounds” (priority 2011, dated 2015).
Certain results were filed several times, with different values. This list holds those alone. The source may hold further records. The records of an entry differ, and nothing given here explains why; they may come from other doses, times, organisms or constructs than stated.

Experiments:
mice [1] = experiment: Tail-flick test (antinociception); assay type: in vivo, mouse; settings: @ 10 mg/kg, sc, listed as (±)-102
mice [2] = experiment: Hot-plate test (antinociception); assay type: in vivo, mouse; settings: @ 10 mg/kg, sc, listed as (±)-102

## O=[N+]([O-])c1ccc(-c2cc(C3CC4CCC3N4)cnc2F)cc1 (single isomer, unassigned)
Mice [1]
  Tail-Flick, % effect at dose: 5% @ 10 and 4% @ 10
Mice [2]
  Hot-Plate, % effect at dose: 10% @ 10 and 5% @ 10
